These are yes or no findings as the source states them, for the method shown.
Target: DNA sliding clamp β (E. coli), P0A988
Assay: SEC
Conditions: remark: other sources report otherwise

By UniProt entry, the sequences of proteins in these tests, tags left out.
UniProt P0A988, whole entry: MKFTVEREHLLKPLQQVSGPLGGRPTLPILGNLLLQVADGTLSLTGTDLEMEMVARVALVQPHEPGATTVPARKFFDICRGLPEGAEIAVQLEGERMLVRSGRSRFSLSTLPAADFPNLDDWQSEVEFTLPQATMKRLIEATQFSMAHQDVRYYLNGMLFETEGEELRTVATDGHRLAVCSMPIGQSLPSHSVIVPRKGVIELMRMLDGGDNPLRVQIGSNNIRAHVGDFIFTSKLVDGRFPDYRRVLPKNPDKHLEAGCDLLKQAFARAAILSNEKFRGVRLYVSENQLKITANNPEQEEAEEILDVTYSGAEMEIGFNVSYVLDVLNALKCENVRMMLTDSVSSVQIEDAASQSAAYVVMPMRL

binding: no binding (tested: 10 μM)
B1: E. coli DNA ligase LigA, P15042 1-671 (enzyme)
chain: MESIEQQLTELRTTLRHHEYLYHVMDAPEIPDAEYDRLMRELRELETKHPELITPDSPTQRVGAAPLAAFSQIRHEVPMLSLDNVFDEESFLAFNKRVQDRLKNNEKVTWCCELKLDGLAVSILYENGVLVSAATRGDGTTGEDITSNVRTIRAIPLKLHGENIPARLEVRGEVFLPQAGFEKINEDARRTGGKVFANPRNAAAGSLRQLDPRITAKRPLTFFCYGVGVLEGGELPDTHLGRLLQFKKWGLPVSDRVTLCESAEEVLAFYHKVEEDRPTLGFDIDGVVIKVNSLAQQEQLGFVARAPRWAVAFKFPAQEQMTFVRDVEFQVGRTGAITPVARLEPVHVAGVLVSNATLHNADEIERLGLRIGDKVVIRRAGDVIPQVVNVVLSERPEDTREVVFPTHCPVCGSDVERVEGEAVARCTGGLICGAQRKESLKHFVSRRAMDVDGMGDKIIDQLVEKEYVHTPADLFKLTAGKLTGLERMGPKSAQNVVNALEKAKETTFARFLYALGIREVGEATAAGLAAYFGTLEALEAASIEELQKVPDVGIVVASHVHNFFAEESNRNVISELLAEGVHWPAPIVINAEEIDSPFAGKTVVLTGSLSQMSRDDAKARLVELGAKVAGSVSKKTDLVIAGEAAGSKLAKAQELGIEVIDEAEMLRLLGS
